A word on the Kd: it is the equilibrium constant for the complex coming apart.

The exact form of at least one protein or probe is not confirmed. Where a protein sequence is shown, tags need not be part of it.

The source of these data is paper PMC5777247, “Cohesin SA2 is a sequence-independent DNA-binding protein that recognizes DNA replication and repair intermediates”.

This data set has as its target T1, SA2 (STAG2), full length (human) (UniProt Q8N3U4).
T1 sequence (looked up): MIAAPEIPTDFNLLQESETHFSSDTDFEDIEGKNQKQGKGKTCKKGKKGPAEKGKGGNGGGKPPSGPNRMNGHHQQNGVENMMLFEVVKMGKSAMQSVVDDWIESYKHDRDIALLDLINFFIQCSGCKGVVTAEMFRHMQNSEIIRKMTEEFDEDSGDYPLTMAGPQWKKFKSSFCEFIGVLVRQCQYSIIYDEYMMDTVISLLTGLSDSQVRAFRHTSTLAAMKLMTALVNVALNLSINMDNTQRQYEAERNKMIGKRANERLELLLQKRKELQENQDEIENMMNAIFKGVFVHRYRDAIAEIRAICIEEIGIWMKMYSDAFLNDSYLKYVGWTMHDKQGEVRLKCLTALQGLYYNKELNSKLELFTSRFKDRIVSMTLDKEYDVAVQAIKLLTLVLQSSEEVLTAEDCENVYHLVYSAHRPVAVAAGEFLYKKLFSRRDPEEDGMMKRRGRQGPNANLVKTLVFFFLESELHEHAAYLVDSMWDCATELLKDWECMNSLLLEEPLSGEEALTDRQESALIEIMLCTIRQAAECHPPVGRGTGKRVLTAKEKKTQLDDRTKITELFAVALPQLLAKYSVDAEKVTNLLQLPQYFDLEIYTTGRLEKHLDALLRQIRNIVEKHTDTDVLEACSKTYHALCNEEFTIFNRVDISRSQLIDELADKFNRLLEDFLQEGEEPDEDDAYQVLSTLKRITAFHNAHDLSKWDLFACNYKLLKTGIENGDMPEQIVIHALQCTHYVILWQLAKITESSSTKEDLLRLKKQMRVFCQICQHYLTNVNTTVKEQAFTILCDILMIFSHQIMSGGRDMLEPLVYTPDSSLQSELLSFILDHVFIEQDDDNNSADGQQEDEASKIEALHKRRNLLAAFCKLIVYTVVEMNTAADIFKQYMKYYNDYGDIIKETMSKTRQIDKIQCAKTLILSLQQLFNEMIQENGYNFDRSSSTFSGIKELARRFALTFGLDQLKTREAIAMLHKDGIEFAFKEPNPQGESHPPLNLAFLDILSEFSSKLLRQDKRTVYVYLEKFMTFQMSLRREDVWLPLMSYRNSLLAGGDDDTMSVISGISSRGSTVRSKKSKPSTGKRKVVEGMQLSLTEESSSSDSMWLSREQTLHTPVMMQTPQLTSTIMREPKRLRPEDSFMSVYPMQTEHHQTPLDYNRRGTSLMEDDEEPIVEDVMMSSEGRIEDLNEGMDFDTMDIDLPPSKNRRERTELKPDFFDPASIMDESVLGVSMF
The data set can be described thus: fluorescence anisotropy. Conditions: Anisotropy: 20 mM Hepes pH 7.5, 0.1 mM MgCl2, 0.5 mM DTT, 100 mM KCl, 1 nM DNA, recombinant protein, residues 1-1231, protein details: 6xHis, label: 5' Alexa 488 on strand 1. Background: In fluorescence polarisation assays a small probe gives low polarisation when free and higher when bound to something large.

Regarding “TGTCGCATAGTGTAGTCGGTCTTGTTCGGTCATAGCTCATCGTGG / CCACGATGAGCTATGACCGAACAA [overhang]”, the Kd was 56.4 nM.

Take “TGTCGCATAGTGTAGTCGGTCTTGTTCGGTCATAGCTCATCGTGG / CCACGATGAGCTATGACCGAATGCCGAATTCTACCAGTGCCAGTG [fork]”: the Kd stood at 58.4 nM. As to “TGTCGCATAGTGTAGTCGGTCTTGTTCGGTCATAGCTCATCGTGG / CCACGATGAGCTATGACCGAACAA / ACTCTGTTCATCGTCATCTGCGACCGACTACACTATGCGACA [flap]”, the Kd (folded or branched DNA) stood at 104 nM.
